Among the data in patent publication US20170014477A1, “FREE RAPTOR REDUCES AGING- AND OBESITY-INDUCED FATTY LIVER” (The Trustees of Columbia University in the City of New York, priority 2015, published 2017) are binding values, retold here.

Results are given in words; binding and its absence hold for the method and conditions named. Binding can be weak; no strength is given. For some assays here: Binding seen in cells or lysates may run through a third protein.

The target in experiment [1] is KCTD17 (potassium channel tetramerization domain containing 17). In words: co-immunoprecipitation, Western blot (FIG. 49B).
The next experiment deals with Akt (mouse). In words: anti-Akt IP from liver of young or adult Ad-GFP and Ad-Raptor mice, Western blot (FIG. 13I).

B1: PH domain leucine-rich repeat protein phosphatase 2 (PHLPP2), endogenous (enzyme, mouse, UniProt Q8BXA7 1-1320, looked up)
chain: MKHNGSRTCLNRRSRFGSRERDWLREDVKRGCVYLYGADTTTATTTTSSSSSSSSSSDLHLVLCTVETPASEICAGEGRESLYLQLHGDLVRRLEPSERPLQIVYDYLSRLGFEDPVRIQEEATNPDLSCMIRFYGEKPCQMDHLDRILLSGIYNVRKGKTQLHKWAERLVVLCGTCLIVSSVKDCQTGKMHILPLVGGKIEEVKRRQHSLAFSSAGAQAQTYHVSFETLAEYQRWQRQASKVVSQRMSTVDLSCYSLEEVPEHLFYSQDITYLNLRHNFMQLERPGGLDTLHKFSQLKGLNLSHNKLGLFPVLLCEISTLTELSLSCNGFHDLPSQIGKLLNLQTLSLDGNGLTALPDELGNLRQLTSLGISFNDFRHIPEVLEKLTMLDKVAMAGNRLEVLNLGALTRMSQVKHVDLRMNHLKTVITENMEGNKHITHMDLRDNQLTDLDLSSLCSLEQLHCERNQLRELTLSGFSLRTLYASWNRLTAVNVYPVPSLLTSLELSQNLLECVPDWACEAKKLEILDISHNLLTEVPMRILSSLSLRKLMVGHNHIHVLPALVEHIPLEVLDIQHNTLSRLPDTLFSKALNLRYLNASANSLESLPSACAGEESLSVLQLLYLTSNLLTDQCIPVLVGHPHLRVLHLANNQLQTFPASKLNKLEQLEELNLSGNKLTAIPTTIANCKRLHTLVAHANNISIFPEILQLPQIQFVDLSCNDLTEILIPEALPATLQDLDLTGNTNLVLEHKTLDMFSHITALKIDQKPLPATDSAVTSTFWSHGLAEMAGQRNKLCVSALAMDNFAEGVGAVYGMFDGDRNEELPRLLQCTMADVLLEEVQHSTNDTVFMTNTFLVSHRKLGMAGQKLGSSALLCYIRPDTADPTSSFSLTVANVGMCQAVLCRGGKPVPLSKVFSLEHDPEEAQRVKDQKAIITEDNKVNGVTCCTRLLGCTYLYPWILPKPHIASTPLTIQDELLILGNKALWEHLSYLEAVNAVRHVQDPLAAAKKLCTLAQSYGCQDNVGAMVVYLNIGEEGCTCEMNGLTLPGPVGFASTAALKDTPKPTTPSSSSGIASEFSSEMSTSEVSSEVGSTASDEHNTVGLEASLLPRPERRCSLHPASSAGVFQRQPSCATFSSNQSDNGLDSDDDQPVEGVITNGSRVEVEVDIHCCRGREPESSPPLPKNSSNACSEERARGAGFGIRRQNSVNSGILLPANRDKMELQKSPSTSCLYGKKLSNGSIVPLEDSLNLIEVATEAPKRKTGYFAAPTQLEPEDQFVVPRDLEEEVKEQMKQHQEGRPEPEPRGEERTEPLEEFDTAL
Turning to B1, the binding result (in experiment [1]; with Akt (mouse)) was “binds” throughout.
